The target of assay [1] is endogenous EAAT3 (mouse) (mouse (endogenous in mouse hippocampus and primary neurons)) (UniProt P51906). The experiment in a line: Western blot.
The target in assay [2] is GFP-tagged β-Galactosidase [β-galactosidase: P00722]. Description: co-IP.

Experimental findings from doi:10.1101/426734 are described below.

These are yes or no findings as the source states them, for the method shown. For some assays here: In cells and extracts the contact can be indirect. Some binding calls cover weakened binding; strength is not graded here.

B1: endogenous EAAT3 (mouse) (protein, UniProt P51906 1-523)
chain: MGKPTSSGCDWRRFLRNHWLLLSTVAAVVLGIVLGVVVRGHSELSNLDKFYFAFPGEILMRMLKLVILPLIVSSMITGVAALDSNVSGKIGLRAVVYYFSTTVIAVILGIVLVVSIKPGVTQKVNDINRTGKTPEVSTMDAMLDLIRNMFPENLVQACFQQYKTKREEVKPVGDPGGNATEVSVTTAMTTMSENKTKEYKIVGLYSDGINVLGLIIFCLVFGLVIGKMGEKGQILVDFFNALSDATMKIVQIIMCYMPIGILFLIAGKIIEVEDWEIFRKLGLYMATVLSGLAIHSLIVLPLLYFIVVRKNPFRFALGMAQALLTALMISSSSATLPVTFRCAEEKNQVDKRITRFVLPVGATINMDGTALYEAVAAVFIAQLNGLDLSIGQIVTISITATAASIGAAGVPQAGLVTMVIVLSAVGLPAEDVTLIIAVDWLLDRFRTMVNVLGDAFGTGIVEKLSKKELEQMDVSSEVNIVNPFALEPTTLDNEDSDTKKSYVNGGFAVDKSDTISFTQTSQF
As to B1, the binding entry in assay [1] is given as “binds”.

B2: rat EAAT3 (protein, UniProt P51907 1-523)
chain: MGKPTSSGCDWRRFLRNHWLLLSTVAAVVLGIVVGVLVRGHSELSNLDKFYFAFPGEILMRMLKLVILPLIISSMITGVAALDSNVSGKIGLRAVVYYFSTTVIAVILGIVLVVSIKPGVTQKVNEINRTGKTPEVSTVDAMLDLIRNMFPENLVQACFQQYKTKREEVKPASDPGGNQTEVSVTTAMTTMSENKTKEYKIVGLYSDGINVLGLIIFCLVFGLVIGKMGEKGQILVDFFNALSDATMKIVQIIMCYMPIGILFLIAGKIIEVEDWEIFRKLGLYMATVLSGLAIHSLVVLPLIYFIVVRKNPFRFALGMAQALLTALMISSSSATLPVTFRCAEEKNHVDKRITRFVLPVGATINMDGTALYEAVAAVFIAQLNGMDLSIGQIITISITATAASIGAAGVPQAGLVTMVIVLSAVGLPAEDVTLIIAVDWLLDRFRTMVNVLGDAFGTGIVEKLSKKELEQVDVSSEVNIVNPFALEPTILDNEDSDTKKSYVNGGFSVDKSDTISFTQTSQF
As for B2, the binding result in assay [2] was “no binding”.
